Data source: PubChem BioAssay AID1224830 (NIAID, 2016)

Test: 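Host factors that control LPS-induced TNF expression in human macrophages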 (primary screen)
Cells: human THP-1 monocytic leukaemia cells, TNF dual-luciferase reporter clone, PMA-differentiated to macrophage-like cells
Knock-down reagent: siRNA pool against human genes, 50 nM
Duration: LPS for 4 h, given about 3 days after siRNA transfection
Challenge: bacterial LPS (TLR4 ligand), 10 ng/ml
Measured: 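Ratio of firefly to renilla light, scaled to the plate median and expressed as a robust z-score per replicate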
Direction: TNF reporter robust z-score: higher = stronger TNF reporter response to LPS
Rule for the call: 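a well is active when its z-score exceeds 2.8 or falls below -1.5; control wells carry no call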
The whole screen tested about 18,000 reagents; below is a part drawn at random. Of all reagents, about 2,900 (16%) are marked active. 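Calls are made per well; low scores hint the gene aids the LPS response, high scores that it dampens it.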 Repeated entries: four replicate wells of each siRNA pool.

| target | PubChem SID | TNF reporter robust z-score | Call |
| --- | --- | --- | --- |
| WDR12 (WD repeat domain 12) | SID315457833 | 0.42 | inactive |
| WDR12 (WD repeat domain 12) | SID315457833 | 1.57 | inactive |
| WDR12 (WD repeat domain 12) | SID315457833 | 0.39 | inactive |
| WDR12 (WD repeat domain 12) | SID315457833 | 0.28 | inactive |
| UBAC2 (UBA domain containing 2) | SID315463951 | -0.14 | inactive |
| UBAC2 (UBA domain containing 2) | SID315463951 | 1.94 | inactive |
| UBAC2 (UBA domain containing 2) | SID315463951 | 0.08 | inactive |
| UBAC2 (UBA domain containing 2) | SID315463951 | 1.15 | inactive |
| ADH1C (alcohol dehydrogenase 1C (class I), gamma polypeptide) | SID315447201 | -0.8 | inactive |
| ADH1C (alcohol dehydrogenase 1C (class I), gamma polypeptide) | SID315447201 | -0.27 | inactive |
| ADH1C (alcohol dehydrogenase 1C (class I), gamma polypeptide) | SID315447201 | -0.48 | inactive |
| ADH1C (alcohol dehydrogenase 1C (class I), gamma polypeptide) | SID315447201 | -0.39 | inactive |
| SBF1 (SET binding factor 1) | SID315451296 | 0.58 | inactive |
| SBF1 (SET binding factor 1) | SID315451296 | 0.03 | inactive |
| SBF1 (SET binding factor 1) | SID315451296 | 0.32 | inactive |
| SBF1 (SET binding factor 1) | SID315451296 | 0.05 | inactive |
| EFCAB5 (EF-hand calcium binding domain 5) | SID315464329 | -0.7 | inactive |
| EFCAB5 (EF-hand calcium binding domain 5) | SID315464329 | 0 | inactive |
| EFCAB5 (EF-hand calcium binding domain 5) | SID315464329 | -0.46 | inactive |
| EFCAB5 (EF-hand calcium binding domain 5) | SID315464329 | -0.3 | inactive |
| TMIE (transmembrane inner ear) | SID315463572 | 0.89 | inactive |
| TMIE (transmembrane inner ear) | SID315463572 | 0.25 | inactive |
| TMIE (transmembrane inner ear) | SID315463572 | 0.4 | inactive |
| TMIE (transmembrane inner ear) | SID315463572 | 5.76 | active |
| C21orf91 (chromosome 21 open reading frame 91) | SID315456972 | 0.27 | inactive |
| C21orf91 (chromosome 21 open reading frame 91) | SID315456972 | -0.17 | inactive |
| C21orf91 (chromosome 21 open reading frame 91) | SID315456972 | 1.26 | inactive |
| C21orf91 (chromosome 21 open reading frame 91) | SID315456972 | 0.25 | inactive |
| CLECL1 (C-type lectin like 1) | SID315462700 | -0.58 | inactive |
| CLECL1 (C-type lectin like 1) | SID315462700 | -1.14 | inactive |
| CLECL1 (C-type lectin like 1) | SID315462700 | -0.88 | inactive |
| CLECL1 (C-type lectin like 1) | SID315462700 | -0.29 | inactive |
| PZP (PZP alpha-2-macroglobulin like) | SID315451001 | 1.15 | inactive |
| PZP (PZP alpha-2-macroglobulin like) | SID315451001 | 1.81 | inactive |
| PZP (PZP alpha-2-macroglobulin like) | SID315451001 | 2.32 | inactive |
| PZP (PZP alpha-2-macroglobulin like) | SID315451001 | 1.96 | inactive |
| PAQR8 (progestin and adipoQ receptor family member 8) | SID315460658 | -0.38 | inactive |
| PAQR8 (progestin and adipoQ receptor family member 8) | SID315460658 | 2.35 | inactive |
| PAQR8 (progestin and adipoQ receptor family member 8) | SID315460658 | 0.24 | inactive |
| PAQR8 (progestin and adipoQ receptor family member 8) | SID315460658 | 1.08 | inactive |
| BBS10 (Bardet-Biedl syndrome 10) | SID315459425 | -1.12 | inactive |
| BBS10 (Bardet-Biedl syndrome 10) | SID315459425 | -1.39 | inactive |
| BBS10 (Bardet-Biedl syndrome 10) | SID315459425 | -1.15 | inactive |
| BBS10 (Bardet-Biedl syndrome 10) | SID315459425 | -0.08 | inactive |
| ARHGDIB (Rho GDP dissociation inhibitor beta) | SID315447401 | -0.7 | inactive |
| ARHGDIB (Rho GDP dissociation inhibitor beta) | SID315447401 | -0.48 | inactive |
| ARHGDIB (Rho GDP dissociation inhibitor beta) | SID315447401 | -0.82 | inactive |
| ARHGDIB (Rho GDP dissociation inhibitor beta) | SID315447401 | -0.02 | inactive |
| TSPY3 (testis specific protein Y-linked 3) | SID315465186 | -1.69 | active |
| TSPY3 (testis specific protein Y-linked 3) | SID315465186 | 0.11 | inactive |
| TSPY3 (testis specific protein Y-linked 3) | SID315465186 | -1.66 | active |
| TSPY3 (testis specific protein Y-linked 3) | SID315465186 | -1.58 | active |
| TMEM52 (transmembrane protein 52) | SID315464036 | -0.11 | inactive |
| TMEM52 (transmembrane protein 52) | SID315464036 | 1.61 | inactive |
| TMEM52 (transmembrane protein 52) | SID315464036 | -1.42 | inactive |
| TMEM52 (transmembrane protein 52) | SID315464036 | -0.66 | inactive |
| FAM78A (family with sequence similarity 78 member A) | SID315463912 | 0.19 | inactive |
| FAM78A (family with sequence similarity 78 member A) | SID315463912 | 2.84 | active |
| FAM78A (family with sequence similarity 78 member A) | SID315463912 | 0.31 | inactive |
| FAM78A (family with sequence similarity 78 member A) | SID315463912 | 0.53 | inactive |
| KLK12 (kallikrein related peptidase 12) | SID315456311 | -0.41 | inactive |
| KLK12 (kallikrein related peptidase 12) | SID315456311 | -0.36 | inactive |
| KLK12 (kallikrein related peptidase 12) | SID315456311 | -0.3 | inactive |
| KLK12 (kallikrein related peptidase 12) | SID315456311 | -0.76 | inactive |
| SUGP2 (SURP and G-patch domain containing 2) | SID315453857 | -0.25 | inactive |
| SUGP2 (SURP and G-patch domain containing 2) | SID315453857 | 0.08 | inactive |
| SUGP2 (SURP and G-patch domain containing 2) | SID315453857 | 0.49 | inactive |
| SUGP2 (SURP and G-patch domain containing 2) | SID315453857 | 0 | inactive |
| PIK3R3 (phosphoinositide-3-kinase regulatory subunit 3) | SID315452607 | -1.58 | active |
| PIK3R3 (phosphoinositide-3-kinase regulatory subunit 3) | SID315452607 | -0.35 | inactive |
| PIK3R3 (phosphoinositide-3-kinase regulatory subunit 3) | SID315452607 | -1.26 | inactive |
| PIK3R3 (phosphoinositide-3-kinase regulatory subunit 3) | SID315452607 | -1.48 | inactive |

18 entries already listed, sorted by “TNF reporter robust z-score”, high to low.
| target | PubChem SID | TNF reporter robust z-score | Call |
| --- | --- | --- | --- |
| FAM78A (family with sequence similarity 78 member A) | SID315463912 | 2.84 | active |
| TMEM52 (transmembrane protein 52) | SID315464036 | 1.61 | inactive |
| FAM78A (family with sequence similarity 78 member A) | SID315463912 | 0.53 | inactive |
| SUGP2 (SURP and G-patch domain containing 2) | SID315453857 | 0.49 | inactive |
| FAM78A (family with sequence similarity 78 member A) | SID315463912 | 0.31 | inactive |
| FAM78A (family with sequence similarity 78 member A) | SID315463912 | 0.19 | inactive |
| SUGP2 (SURP and G-patch domain containing 2) | SID315453857 | 0.08 | inactive |
| SUGP2 (SURP and G-patch domain containing 2) | SID315453857 | 0 | inactive |
| TMEM52 (transmembrane protein 52) | SID315464036 | -0.11 | inactive |
| SUGP2 (SURP and G-patch domain containing 2) | SID315453857 | -0.25 | inactive |
| KLK12 (kallikrein related peptidase 12) | SID315456311 | -0.3 | inactive |
| PIK3R3 (phosphoinositide-3-kinase regulatory subunit 3) | SID315452607 | -0.35 | inactive |
| KLK12 (kallikrein related peptidase 12) | SID315456311 | -0.36 | inactive |
| KLK12 (kallikrein related peptidase 12) | SID315456311 | -0.41 | inactive |
| TMEM52 (transmembrane protein 52) | SID315464036 | -0.66 | inactive |
| KLK12 (kallikrein related peptidase 12) | SID315456311 | -0.76 | inactive |
| TMEM52 (transmembrane protein 52) | SID315464036 | -1.42 | inactive |
| PIK3R3 (phosphoinositide-3-kinase regulatory subunit 3) | SID315452607 | -1.58 | active |

Continued:
| target | PubChem SID | TNF reporter robust z-score | Call |
| --- | --- | --- | --- |
| UBFD1 (ubiquitin family domain containing 1) | SID315457981 | 0.58 | inactive |
| UBFD1 (ubiquitin family domain containing 1) | SID315457981 | -0.49 | inactive |
| UBFD1 (ubiquitin family domain containing 1) | SID315457981 | 0.47 | inactive |
| UBFD1 (ubiquitin family domain containing 1) | SID315457981 | 0.51 | inactive |
| CFAP126 (cilia and flagella associated protein 126) | SID315463553 | 1.13 | inactive |
| CFAP126 (cilia and flagella associated protein 126) | SID315463553 | 1.55 | inactive |
| CFAP126 (cilia and flagella associated protein 126) | SID315463553 | 1.14 | inactive |
| CFAP126 (cilia and flagella associated protein 126) | SID315463553 | 0.46 | inactive |
| LBX1 (ladybird homeobox 1) | SID315454277 | -0.61 | inactive |
| LBX1 (ladybird homeobox 1) | SID315454277 | -0.62 | inactive |
| LBX1 (ladybird homeobox 1) | SID315454277 | -0.9 | inactive |
| LBX1 (ladybird homeobox 1) | SID315454277 | -0.69 | inactive |
| DGKI (diacylglycerol kinase iota) | SID315453092 | -0.03 | inactive |
| DGKI (diacylglycerol kinase iota) | SID315453092 | -0.54 | inactive |
| DGKI (diacylglycerol kinase iota) | SID315453092 | 0 | inactive |
| DGKI (diacylglycerol kinase iota) | SID315453092 | 0.38 | inactive |
| NR5A1 (nuclear receptor subfamily 5 group A member 1) | SID315448768 | -0.54 | inactive |
| NR5A1 (nuclear receptor subfamily 5 group A member 1) | SID315448768 | -0.29 | inactive |
| NR5A1 (nuclear receptor subfamily 5 group A member 1) | SID315448768 | 0.23 | inactive |
| NR5A1 (nuclear receptor subfamily 5 group A member 1) | SID315448768 | -0.19 | inactive |
| TRIP13 (thyroid hormone receptor interactor 13) | SID315453194 | -0.13 | inactive |
| TRIP13 (thyroid hormone receptor interactor 13) | SID315453194 | -0.27 | inactive |
| TRIP13 (thyroid hormone receptor interactor 13) | SID315453194 | -1.03 | inactive |
| TRIP13 (thyroid hormone receptor interactor 13) | SID315453194 | -0.81 | inactive |
| TMCC3 (transmembrane and coiled-coil domain family 3) | SID315458389 | 0.69 | inactive |
| TMCC3 (transmembrane and coiled-coil domain family 3) | SID315458389 | -0.3 | inactive |
| TMCC3 (transmembrane and coiled-coil domain family 3) | SID315458389 | 0.51 | inactive |
| TMCC3 (transmembrane and coiled-coil domain family 3) | SID315458389 | 0.95 | inactive |
| CT45A5 (cancer/testis antigen family 45 member A5) | SID315464948 | -0.53 | inactive |
| CT45A5 (cancer/testis antigen family 45 member A5) | SID315464948 | -0.4 | inactive |
| CT45A5 (cancer/testis antigen family 45 member A5) | SID315464948 | -0.21 | inactive |
| CT45A5 (cancer/testis antigen family 45 member A5) | SID315464948 | 0.59 | inactive |
| CHI3L1 (chitinase 3 like 1) | SID315447909 | 1.93 | inactive |
| CHI3L1 (chitinase 3 like 1) | SID315447909 | 0.79 | inactive |
| CHI3L1 (chitinase 3 like 1) | SID315447909 | 1.34 | inactive |
| CHI3L1 (chitinase 3 like 1) | SID315447909 | -1.01 | inactive |
| PAX9 (paired box 9) | SID315450435 | 0.63 | inactive |
| PAX9 (paired box 9) | SID315450435 | 0.69 | inactive |
| PAX9 (paired box 9) | SID315450435 | 0.05 | inactive |
| PAX9 (paired box 9) | SID315450435 | 1.68 | inactive |
| NREP (neuronal regeneration related protein) | SID315453191 | -0.81 | inactive |
| NREP (neuronal regeneration related protein) | SID315453191 | 0.37 | inactive |
| NREP (neuronal regeneration related protein) | SID315453191 | -1.32 | inactive |
| NREP (neuronal regeneration related protein) | SID315453191 | -0.01 | inactive |
| SALL4 (spalt like transcription factor 4) | SID315458309 | -0.4 | inactive |
| SALL4 (spalt like transcription factor 4) | SID315458309 | -0.18 | inactive |
| SALL4 (spalt like transcription factor 4) | SID315458309 | -0.22 | inactive |
| SALL4 (spalt like transcription factor 4) | SID315458309 | 0.11 | inactive |
| SMARCD1 (SWI/SNF related BAF chromatin remodeling complex subunit D1) | SID315451530 | -0.58 | inactive |
| SMARCD1 (SWI/SNF related BAF chromatin remodeling complex subunit D1) | SID315451530 | 0.74 | inactive |
| SMARCD1 (SWI/SNF related BAF chromatin remodeling complex subunit D1) | SID315451530 | 0.08 | inactive |
| FSCN2 (fascin actin-bundling protein 2, retinal) | SID315455465 | -0.25 | inactive |
| FSCN2 (fascin actin-bundling protein 2, retinal) | SID315455465 | -0.79 | inactive |
| FSCN2 (fascin actin-bundling protein 2, retinal) | SID315455465 | -0.16 | inactive |
| FSCN2 (fascin actin-bundling protein 2, retinal) | SID315455465 | 0.07 | inactive |
| HEXA (hexosaminidase subunit alpha) | SID315449178 | 2.08 | inactive |
| HEXA (hexosaminidase subunit alpha) | SID315449178 | 4.06 | active |
| HEXA (hexosaminidase subunit alpha) | SID315449178 | 2.09 | inactive |
| HEXA (hexosaminidase subunit alpha) | SID315449178 | 4.98 | active |
| FRG2 (FSHD region gene 2) | SID315464986 | -1.19 | inactive |
| FRG2 (FSHD region gene 2) | SID315464986 | -1.13 | inactive |
| FRG2 (FSHD region gene 2) | SID315464986 | -0.68 | inactive |
| FRG2 (FSHD region gene 2) | SID315464986 | -1.05 | inactive |
| SENP6 (SUMO specific peptidase 6) | SID315455643 | 0.85 | inactive |
| SENP6 (SUMO specific peptidase 6) | SID315455643 | 1.73 | inactive |
| SENP6 (SUMO specific peptidase 6) | SID315455643 | 2.2 | inactive |
| SENP6 (SUMO specific peptidase 6) | SID315455643 | 1.46 | inactive |
| IRF2BP1 (interferon regulatory factor 2 binding protein 1) | SID315455687 | -0.67 | inactive |
| IRF2BP1 (interferon regulatory factor 2 binding protein 1) | SID315455687 | -0.55 | inactive |
| IRF2BP1 (interferon regulatory factor 2 binding protein 1) | SID315455687 | -1.54 | active |
| IRF2BP1 (interferon regulatory factor 2 binding protein 1) | SID315455687 | -0.34 | inactive |
